Measured values from PubChem BioAssay AID2685 (National Center for Advancing Translational Sciences (NCATS), 2010).
This is one part of the list. Shown are side measurements of this screen, not its main read-out; they come without a call. The list favours compounds with an active or inconclusive main result. Potencies come from curve fits of mixed quality, noted in brackets.

Experiment: qHTS Assay for Lipid Storage Modulators in Drosophila S3 Cells;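 on cell number change: cells counted by Cell Tracker Red CMTPX staining in the red channel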
Details: BODIPY lipid droplet fluorescence, 18-24 h; for cell number change: measured here: cell count max response, cells fed with added oleic acid
Procedure, shortened: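 Laser-scanning cytometry quantifies lipid droplet accumulation (500–530 nm total intensity; droplet/cell object ratio) in oleic acid-fed (400 uM added) Drosophila S3 cells treated with a concentration series. 20 uM Triacsin C defined 100% inhibition.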

[1] = measured here: lipid fluorescence (Fed channel) AC50, cells fed with added oleic acid
[2] = measured here: cell number channel AC50, cells fed with added oleic acid

With `O=C(NCc1ccco1)C12CC3CC(C1)CC(C(=O)NCc1ccco1)(C3)C2` the cell number change was -17.6% and the AC50 [1] was 25900 nM [falling, single point].

With `COc1cc(C(=O)OCC(=O)Nc2c(C)n(C)n(-c3ccccc3)c2=O)c([N+](=O)[O-])cc1OC` the cell number change was -32.7%, the AC50 [2] was 32600 nM [falling, single point] and the AC50 [1] was 461 nM [rising, single point].

With `CC(=O)c1ccc(NC(=S)NCCc2ccccn2)cc1` the cell number change was -40.2%, the AC50 [2] was 92 nM [falling, full curve, poor fit] and the AC50 [1] was 146 nM [rising, full curve, poor fit].

In the case of `CCC(C)c1c(O)nc(SCC(=O)N2CCOCC2)[nH]c1=O` (stereo unspecified), the cell number change is reported as 11.7% and the AC50 [1] is reported as 146 nM [falling, full curve, poor fit].

For `O=c1cc(C(F)(F)F)[nH]c(=S)n1-c1ccccc1`, the cell number change was -6.84%.

In the case of `O=C(C1CC1)N1CCc2cc(S(=O)(=O)N3CCN(c4ccccc4)CC3)ccc21`, the cell number change is reported as 5.7%, the AC50 [2] is reported as 2060 nM [rising, partial curve, poor fit] and the AC50 [1] is reported as 580 nM [rising, single point].

With `c1ccc2oc(-c3ccc(Nc4nc(N5CCCCC5)nc(N5CCOCC5)n4)cc3)nc2c1` the cell number change was 20.6% and the AC50 [1] was 10300 nM [rising, partial curve].

For `COc1ccc(-c2oc3ccccc3c2C(=O)OCc2ccc(O)cc2)cc1`, the cell number change was -2.27% and the AC50 [1] was 29100 nM [rising, single point].

In the case of `Cc1cc(N2C(=O)CC(N3CCN(c4ccc(C(=O)c5cccs5)cc4)CC3)C2=O)no1` (stereo unspecified), the AC50 [1] is reported as 164 nM [rising, full curve, poor fit].

With `Cc1cc(=O)oc(C)c1C(=O)Nc1cccc2ccccc12` the cell number change was -79.1% and the AC50 [2] was 29100 nM [falling, single point].

Molecule `COC(=O)C1CCN(S(=O)(=O)c2ccc(NC(C)=O)cc2)CC1` has a cell number change of 20.1%.

For `O=C(C[n+]1cccc(NC(=O)c2ccccc2)c1)c1cccc([N+](=O)[O-])c1`, the cell number change was 22.2% and the AC50 [1] was 8.2 nM [falling, full curve, poor fit].

For `C[C@]12C=CC(=O)C=C1CC[C@@H]1[C@@H]2[C@@H](O)C[C@@]2(C)[C@H]1CC[C@]2(O)C(=O)COC(=O)CCC(=O)O`, the cell number change was -19.6% and the AC50 [1] was 1640 nM [falling, partial curve].

For `O=c1[nH]c2ccccc2nc1/C=C(\O)c1cccs1`, the cell number change was 28.3%.

For `Cc1ccc(NCc2nnc(SCC(=O)N3c4ccccc4Sc4ccccc43)o2)c(C)c1`, the cell number change was 4.92% and the AC50 [1] was 731 nM [rising, full curve, poor fit].

For `CCCNC(=S)N1CCC(Cc2ccccc2)CC1`, the cell number change was -11.6% and the AC50 [1] was 366 nM [falling, full curve, poor fit].
